Laboratory results: article PMC1687153
No constants are given. Whether binding was seen depends on the method and setting. For some of these results: Binding calls can cover weak binding; strength is not graded here. For some of these results: Tags and fused reporters may be left off the sequences shown. For some of these results: In cells and extracts the contact can be indirect. Each block holds one molecule with its values, some of them ahead of it.

Chains of the proteins cited; added tags and fusions are not shown. Lines headed by an entry give the natural chain unless they say otherwise; changes in a name come on top.
UniProt Q7PL83: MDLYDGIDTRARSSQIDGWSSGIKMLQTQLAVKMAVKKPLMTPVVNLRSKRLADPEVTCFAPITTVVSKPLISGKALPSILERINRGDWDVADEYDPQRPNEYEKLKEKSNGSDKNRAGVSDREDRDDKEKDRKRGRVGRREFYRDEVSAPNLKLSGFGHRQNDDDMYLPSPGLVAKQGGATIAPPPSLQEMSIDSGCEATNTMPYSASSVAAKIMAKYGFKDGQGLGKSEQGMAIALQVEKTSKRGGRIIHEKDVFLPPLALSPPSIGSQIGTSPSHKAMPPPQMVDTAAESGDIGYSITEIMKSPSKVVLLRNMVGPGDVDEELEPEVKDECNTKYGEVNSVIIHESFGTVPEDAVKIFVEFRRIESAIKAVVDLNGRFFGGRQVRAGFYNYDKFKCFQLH

Legend:
[1] = target: T1, GST::U2A′ fusion protein (D. melanogaster) (UniProt Q9V4Q8); experiment: pull-down; GST or GST-tagged protein on glutathione beads incubated overnight at 4 °C with 2.5 mg extract of 3- to 18-h-old embryos; Western blots with antibodies against SPF45 or SNF; only the target purified
T1 sequence: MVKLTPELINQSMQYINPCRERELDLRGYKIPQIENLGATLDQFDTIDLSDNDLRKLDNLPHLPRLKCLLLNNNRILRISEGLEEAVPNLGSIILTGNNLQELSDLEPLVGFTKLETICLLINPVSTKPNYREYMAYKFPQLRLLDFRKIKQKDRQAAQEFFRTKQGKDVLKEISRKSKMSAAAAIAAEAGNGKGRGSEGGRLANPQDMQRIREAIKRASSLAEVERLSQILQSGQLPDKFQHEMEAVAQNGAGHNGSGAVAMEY

[2] = target: T2, U2A′, yeast two-hybrid fusion (D. melanogaster) (UniProt Q9V4Q8); experiment: two-hybrid; GAL4 activation domain (pACT2) and GAL4 DNA-binding domain (pAS2-1) fusions cotransformed into the diploid strain pJ69A/SL3004; growth on selective media with 1 mM 3-amino-1,2,4-triazole (HIS3 reporter) after 3 days
T2 sequence: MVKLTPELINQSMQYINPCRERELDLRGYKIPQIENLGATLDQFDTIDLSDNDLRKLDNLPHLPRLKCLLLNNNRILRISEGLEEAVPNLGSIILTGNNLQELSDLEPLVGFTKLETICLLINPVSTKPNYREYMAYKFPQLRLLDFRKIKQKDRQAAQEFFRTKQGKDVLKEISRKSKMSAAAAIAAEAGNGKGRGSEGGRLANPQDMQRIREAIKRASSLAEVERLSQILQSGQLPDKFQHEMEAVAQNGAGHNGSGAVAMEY

[3] = target: D. melanogaster SPF45 protein (endogenous, wild type) (D. melanogaster (endogenous in embryos)) (UniProt Q7PL83); experiment: co-IP; immunoprecipitations with antibodies against U2A′, SPF45 and SNF from embryo nuclear extracts, Western blots
[4] = target: GST::RAD201 fusion protein (D. melanogaster); experiment: pull-down; GST or GST-tagged protein on glutathione beads incubated overnight at 4 °C with 2.5 mg extract of 3- to 18-h-old embryos; Western blots with antibodies against SPF45 or SNF; only the target purified

binding [1]: binds
Molecule: D. melanogaster SPF45 protein (endogenous, wild type) (from UniProt Q7PL83)

binding [2]: binds
Molecule: SPF45 RRM-like motif alone (amino acids 304-403), yeast two-hybrid fusion (D. melanogaster) (domain or fragment)

binding [3]: binds | binding [4]: no binding
B1: SNF (endogenous) (protein, UniProt P43332 1-216)
chain: MEMLPNQTIYINNLNEKIKKEELKKSLYAIFSQFGQILDIVALKTLKMRGQAFVIFKEIGSASNALRTMQGFPFYDKPMQIAYSKSDSDIVAKIKGTFKERPKKVKPPKPAPGTDEKKDKKKKPSSAENSNPNAQTEQPPNQILFLTNLPEETNEMMLSMLFNQFPGFKEVRLVPNRHDIAFVEFTTELQSNAAKEALQGFKITPTHAMKITFAKK
